Laboratory results: patent publication US9796659B2, “Derivatives of polyhydroxy compounds” (RATIOPHARM GMBH, priority 2014, dated 2017)

Legend:
in vitro = settings: human, Caco-2, Papp × 10^−6 [cm/sec] mean ± s.d.
Protocol: (§1) The membrane permeability was investigated in Caco-2 monolayers. DMF was investigated in a separate experiment for comparison.
(§2) […] The test concentration in the apical medium was 250 μM. […] Furthermore, a significant metabolism or degradation of the test compound was expected and therefore the parent compound as well as MMF was determined in the acceptor compartment (basolateral medium). Sampling time points were 15, 45 and 90 min.

Caco-2 monolayers = experiment: in vitro; settings: human, Caco-2, 90 min
Protocol: as §1, §2

For `CC(C)NCC(O)COc1ccc(CC(N)=O)cc1` (stereo not drawn) [Atenolol, atenolol], the Papp A→B at 90 min, 250 μM (in vitro) was 0.3 ± 0.1 ×10⁻⁶ cm/s, the Papp B→A at 90 min (in vitro) was 1 ± 0.1 ×10⁻⁶ cm/s and the “Papp × 10^−6 [cm/sec] mean ± s.d.” value (Caco-2 monolayers) was 0.8 ± 0.2 10^−6 cm/sec.
